For at least one compound, name, drawing or mass did not settle the structure.
Test system: tau oligomer formation in the brain of Tau-P301L BiFC transgenic mice
Assay: Induction of tau oligomer formation (BiFC fluorescence) in Tau-P301L BiFC transgenic mice
Format: in vivo, mouse
Conditions: drug allowed to flow into a brain ventricle of about 5-month-old Tau-P301L BiFC transgenic mice; brain sections after about 10 days; versus DMSO control

C=C[C@@]1(C)CC(=O)[C@]2(O)[C@@]3(C)[C@@H](O)CCC(C)(C)[C@@H]3[C@H](O)[C@H](OC(C)=O)[C@@]2(C)O1 [forskolin]
BiFC fluorescence in brain section (tau oligomer formation): BiFC fluorescence was observed in a portion surrounding the injected region

— patent US10544427B2, “Transgenic mouse model for dementia” (Korea Institute of Science and Technology, priority 2016, dated 2020)
